## Results of single-concentration screens

Data taken from ChEMBL document CHEMBL3988442, “University of Dundee, Small-Polar-MMV Screening Library” (2021).

Each number is a percent effect as filed.
How 0% and 100% were set is not recorded. Most values in the screen are low, and negative values occur.
The compounds are a random part of those screened.

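Assay of Toxoplasma gondii numbers, read through their beta-galactosidase reporter with a colour substrate. Tested at 50 µM. The record gives no direction; the compounds picked for IC50 retests had high values, so higher reads as fewer parasites. About 18,000 compounds were tested under these conditions; 0.94% (about 170) showed 50% or more at least once.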

{"smiles": "Cn1cc(S(=O)(=O)NCCc2cccnc2)cn1", "effect": -1.313}
{"smiles": "NC1Cc2ccccc21", "stereo": "stereo unspecified", "effect": -16.86}
{"smiles": "O=C1Nc2ccc(Cl)cc2NC12CCOC2", "stereo": "stereo unspecified", "effect": -65.27}
{"smiles": "Cc1noc(C)c1CC(=O)N1CCN(C(C)(C)C)CC1", "effect": 6.08}
{"smiles": "CCc1cnc(CCN)s1", "effect": 3.627}
{"smiles": "Cc1c[nH]c(C(=O)NC(c2nccn2C)C(C)C)n1", "stereo": "stereo unspecified", "effect": 6.746}
{"smiles": "CCCn1nc(C(=O)Nc2ccc(Cl)cn2)ccc1=O", "effect": -8.061}
{"smiles": "N#Cc1c(F)cccc1OCC(=O)NCC1CCCO1", "stereo": "stereo unspecified", "effect": -2.137}
{"smiles": "CC1(NC(=O)CCc2ccccc2Br)CCS(=O)(=O)C1", "stereo": "stereo unspecified", "effect": -4.071}
{"smiles": "CN(C)S(=O)(=O)CCCN1CCC1c1ccc(F)cc1", "stereo": "stereo unspecified", "effect": -1.962}
{"smiles": "CC(=O)c1ccc2c(c1)CCC(=O)N2C", "effect": 4.842}
{"smiles": "CN1CCCN(c2cc([C@H]3C[C@@H](N)C3)ncn2)CC1", "effect": -1.996}
{"smiles": "CCC[C@H]1CN(S(=O)(=O)N2CCOCC2)C[C@@H]1N(C)C", "effect": -2.019}
{"smiles": "CC[C@H](C)[C@H](N)C(=O)N(C)CCc1c(C)n[nH]c1C", "effect": -25.77}
{"smiles": "CC(C)CC(C)Oc1cc(CNS(N)(=O)=O)ccn1", "stereo": "stereo unspecified", "effect": 6.39}
{"smiles": "CS(=O)(=O)c1ccc(CN2CCC(O)(CO)CC2)cc1", "effect": -3.389}
{"smiles": "COCc1ccccc1CNC(=O)c1nc(C)ns1", "effect": -27.27}
{"smiles": "CC(Nc1ccc(C#N)cn1)c1ccc2c(c1)OCO2", "stereo": "stereo unspecified", "effect": 3.939}
{"smiles": "COc1cc(F)cc(CN)c1", "effect": -19.56}
{"smiles": "CNCc1nncn1C", "effect": -9.232}
{"smiles": "Cc1nc(CN2CCCC(N)C2)cs1", "stereo": "stereo unspecified", "effect": 7.332}
{"smiles": "Cc1nnsc1C(=O)Nc1ccncc1", "effect": -7.715}
{"smiles": "CNCC(C)CNC(=O)CCC(F)(F)F", "stereo": "stereo unspecified", "effect": -11.99}
{"smiles": "CSc1ccccc1NC(=O)CNCC(C)O", "stereo": "stereo unspecified", "effect": -9.7}
{"smiles": "CN(Cc1cc2n(n1)CCNC2)Cc1nccs1", "effect": 9.54}
{"smiles": "Cn1nccc1CC(=O)OCCN1CCCCC1=O", "effect": -4.874}
{"smiles": "CCSc1nnc(CN)n1C", "effect": -3.192}
{"smiles": "CC(O)C1CCN(Cc2ccccc2C#N)CC1", "stereo": "stereo unspecified", "effect": -15.63}
{"smiles": "O=C(CN1CSCC1=O)NCCc1cccc(Cl)c1", "effect": -13.8}
{"smiles": "Cc1noc(C)c1CNC1CCN(C)CC1", "effect": -2.669}
{"smiles": "CCOC(=O)N1CCC(N2CCC(C(N)=O)CC2)CC1", "effect": -21.47}
{"smiles": "CN(C)[C@@H]1CN(C(=O)c2nccn2C)C[C@H]1CO", "effect": 41.19}
{"smiles": "CN(CCN)S(=O)(=O)c1cccs1", "effect": -2.794}
{"smiles": "CCOCc1nnc(NCc2nc(C)cs2)o1", "effect": -4.852}
{"smiles": "NC(=O)CCNCCc1ccccc1", "effect": 2.84}
{"smiles": "CN(C)C(=O)c1ccc(OCC2CCCO2)cc1", "stereo": "stereo unspecified", "effect": -2.644}
{"smiles": "CCO[C@H]1COC[C@@H]1NC(=O)c1occc1C", "effect": 3.3}
{"smiles": "Cc1nonc1OCCNC(=O)C1CCCCCN1C", "stereo": "stereo unspecified", "effect": -7.787}
{"smiles": "CNC1CCN(C)C1=O", "stereo": "stereo unspecified", "effect": -3.784}
{"smiles": "OC1(c2cccc3ccccc23)CNC1", "effect": 17.19}
{"smiles": "Cc1ccc2c(c1)C(=O)CCCS2(=O)=O", "effect": -6.954}
{"smiles": "Cc1cccc(C)c1NC(=O)NC(C)(CO)CO", "effect": -13.11}
{"smiles": "COc1cccnc1CN", "effect": 20.55}
{"smiles": "CCc1ncc(C(=O)NCCNc2cnccn2)s1", "effect": -10.21}
{"smiles": "COc1cccc(NC(=O)CCN2C(=O)CCC2=O)c1", "effect": -4.144}
{"smiles": "Cn1ccnc1CN(CCO)CCN1C[C@H]2CC[C@@H]1C2", "effect": 0.617}
{"smiles": "Cc1ccc(C(C)NC(=O)c2cnsn2)o1", "stereo": "stereo unspecified", "effect": -5.731}
{"smiles": "CC1CCC(NCCO)CC1", "stereo": "stereo unspecified", "effect": 47.82}
{"smiles": "OCCNCCNCc1ccc(-c2ccccc2Cl)o1", "effect": 33.01}
{"smiles": "COc1cc(C(=O)NCCC(C)C)cc(OC)c1OC", "effect": -8.612}
{"smiles": "O=C(NC1CCN(CC2CCCO2)CC1)c1cnc[nH]1", "stereo": "stereo unspecified", "effect": 16.97}
{"smiles": "Cc1c[nH]c(CN(C)C(=O)C2CCCCCN2C)n1", "stereo": "stereo unspecified", "effect": 16.95}
{"smiles": "CN(CC1CCC1)C(=O)C1(c2cccnc2)CC1", "effect": -0.9223}